# Some of the results follow. The data scatter; read single values as rough.
# Chains of the proteins cited; added tags and fusions are not shown. Lines headed by an entry give the natural chain unless they say otherwise; changes in a name come on top.
# UniProt Q9NZ08: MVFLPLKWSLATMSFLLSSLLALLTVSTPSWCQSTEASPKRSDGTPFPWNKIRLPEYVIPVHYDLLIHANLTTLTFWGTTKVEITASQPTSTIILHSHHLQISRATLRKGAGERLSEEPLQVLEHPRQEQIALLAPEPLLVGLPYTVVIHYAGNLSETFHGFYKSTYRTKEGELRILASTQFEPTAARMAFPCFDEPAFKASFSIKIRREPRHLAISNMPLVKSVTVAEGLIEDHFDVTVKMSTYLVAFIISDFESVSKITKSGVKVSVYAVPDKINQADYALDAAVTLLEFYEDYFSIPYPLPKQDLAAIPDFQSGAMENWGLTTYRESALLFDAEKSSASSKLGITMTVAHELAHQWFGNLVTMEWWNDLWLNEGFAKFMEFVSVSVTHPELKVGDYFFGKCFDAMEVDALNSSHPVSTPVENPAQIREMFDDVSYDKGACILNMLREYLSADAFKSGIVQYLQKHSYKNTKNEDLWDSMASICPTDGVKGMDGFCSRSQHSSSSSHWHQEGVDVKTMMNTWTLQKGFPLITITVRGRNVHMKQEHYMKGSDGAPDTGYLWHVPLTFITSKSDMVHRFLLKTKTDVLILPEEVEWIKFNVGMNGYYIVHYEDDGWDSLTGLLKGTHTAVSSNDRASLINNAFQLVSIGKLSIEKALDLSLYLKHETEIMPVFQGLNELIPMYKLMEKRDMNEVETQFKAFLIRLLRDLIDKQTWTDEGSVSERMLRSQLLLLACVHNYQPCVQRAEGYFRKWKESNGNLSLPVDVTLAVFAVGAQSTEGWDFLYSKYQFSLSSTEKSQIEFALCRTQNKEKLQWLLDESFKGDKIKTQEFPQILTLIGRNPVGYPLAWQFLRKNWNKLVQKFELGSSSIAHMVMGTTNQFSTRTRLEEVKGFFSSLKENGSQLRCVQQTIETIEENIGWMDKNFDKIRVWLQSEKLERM
# UniProt Q96EB1: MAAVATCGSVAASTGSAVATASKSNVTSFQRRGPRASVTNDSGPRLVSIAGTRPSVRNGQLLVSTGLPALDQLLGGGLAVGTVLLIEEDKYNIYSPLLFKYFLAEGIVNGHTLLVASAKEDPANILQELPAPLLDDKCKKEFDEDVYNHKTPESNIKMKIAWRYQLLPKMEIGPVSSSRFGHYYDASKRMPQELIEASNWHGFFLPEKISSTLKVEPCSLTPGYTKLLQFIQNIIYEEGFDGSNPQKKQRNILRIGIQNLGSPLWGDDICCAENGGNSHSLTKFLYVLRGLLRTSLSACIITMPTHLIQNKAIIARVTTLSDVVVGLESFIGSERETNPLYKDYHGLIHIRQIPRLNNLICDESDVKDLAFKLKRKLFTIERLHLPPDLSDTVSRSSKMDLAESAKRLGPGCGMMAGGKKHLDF
# UniProt O95571: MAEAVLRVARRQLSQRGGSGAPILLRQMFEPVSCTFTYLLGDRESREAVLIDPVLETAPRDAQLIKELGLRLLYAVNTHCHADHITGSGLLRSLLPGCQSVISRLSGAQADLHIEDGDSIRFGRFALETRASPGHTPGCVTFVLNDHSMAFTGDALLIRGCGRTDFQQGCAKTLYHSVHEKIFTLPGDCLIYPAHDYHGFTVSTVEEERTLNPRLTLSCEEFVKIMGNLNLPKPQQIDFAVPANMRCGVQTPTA
# UniProt Q96L91, whole entry, looked up: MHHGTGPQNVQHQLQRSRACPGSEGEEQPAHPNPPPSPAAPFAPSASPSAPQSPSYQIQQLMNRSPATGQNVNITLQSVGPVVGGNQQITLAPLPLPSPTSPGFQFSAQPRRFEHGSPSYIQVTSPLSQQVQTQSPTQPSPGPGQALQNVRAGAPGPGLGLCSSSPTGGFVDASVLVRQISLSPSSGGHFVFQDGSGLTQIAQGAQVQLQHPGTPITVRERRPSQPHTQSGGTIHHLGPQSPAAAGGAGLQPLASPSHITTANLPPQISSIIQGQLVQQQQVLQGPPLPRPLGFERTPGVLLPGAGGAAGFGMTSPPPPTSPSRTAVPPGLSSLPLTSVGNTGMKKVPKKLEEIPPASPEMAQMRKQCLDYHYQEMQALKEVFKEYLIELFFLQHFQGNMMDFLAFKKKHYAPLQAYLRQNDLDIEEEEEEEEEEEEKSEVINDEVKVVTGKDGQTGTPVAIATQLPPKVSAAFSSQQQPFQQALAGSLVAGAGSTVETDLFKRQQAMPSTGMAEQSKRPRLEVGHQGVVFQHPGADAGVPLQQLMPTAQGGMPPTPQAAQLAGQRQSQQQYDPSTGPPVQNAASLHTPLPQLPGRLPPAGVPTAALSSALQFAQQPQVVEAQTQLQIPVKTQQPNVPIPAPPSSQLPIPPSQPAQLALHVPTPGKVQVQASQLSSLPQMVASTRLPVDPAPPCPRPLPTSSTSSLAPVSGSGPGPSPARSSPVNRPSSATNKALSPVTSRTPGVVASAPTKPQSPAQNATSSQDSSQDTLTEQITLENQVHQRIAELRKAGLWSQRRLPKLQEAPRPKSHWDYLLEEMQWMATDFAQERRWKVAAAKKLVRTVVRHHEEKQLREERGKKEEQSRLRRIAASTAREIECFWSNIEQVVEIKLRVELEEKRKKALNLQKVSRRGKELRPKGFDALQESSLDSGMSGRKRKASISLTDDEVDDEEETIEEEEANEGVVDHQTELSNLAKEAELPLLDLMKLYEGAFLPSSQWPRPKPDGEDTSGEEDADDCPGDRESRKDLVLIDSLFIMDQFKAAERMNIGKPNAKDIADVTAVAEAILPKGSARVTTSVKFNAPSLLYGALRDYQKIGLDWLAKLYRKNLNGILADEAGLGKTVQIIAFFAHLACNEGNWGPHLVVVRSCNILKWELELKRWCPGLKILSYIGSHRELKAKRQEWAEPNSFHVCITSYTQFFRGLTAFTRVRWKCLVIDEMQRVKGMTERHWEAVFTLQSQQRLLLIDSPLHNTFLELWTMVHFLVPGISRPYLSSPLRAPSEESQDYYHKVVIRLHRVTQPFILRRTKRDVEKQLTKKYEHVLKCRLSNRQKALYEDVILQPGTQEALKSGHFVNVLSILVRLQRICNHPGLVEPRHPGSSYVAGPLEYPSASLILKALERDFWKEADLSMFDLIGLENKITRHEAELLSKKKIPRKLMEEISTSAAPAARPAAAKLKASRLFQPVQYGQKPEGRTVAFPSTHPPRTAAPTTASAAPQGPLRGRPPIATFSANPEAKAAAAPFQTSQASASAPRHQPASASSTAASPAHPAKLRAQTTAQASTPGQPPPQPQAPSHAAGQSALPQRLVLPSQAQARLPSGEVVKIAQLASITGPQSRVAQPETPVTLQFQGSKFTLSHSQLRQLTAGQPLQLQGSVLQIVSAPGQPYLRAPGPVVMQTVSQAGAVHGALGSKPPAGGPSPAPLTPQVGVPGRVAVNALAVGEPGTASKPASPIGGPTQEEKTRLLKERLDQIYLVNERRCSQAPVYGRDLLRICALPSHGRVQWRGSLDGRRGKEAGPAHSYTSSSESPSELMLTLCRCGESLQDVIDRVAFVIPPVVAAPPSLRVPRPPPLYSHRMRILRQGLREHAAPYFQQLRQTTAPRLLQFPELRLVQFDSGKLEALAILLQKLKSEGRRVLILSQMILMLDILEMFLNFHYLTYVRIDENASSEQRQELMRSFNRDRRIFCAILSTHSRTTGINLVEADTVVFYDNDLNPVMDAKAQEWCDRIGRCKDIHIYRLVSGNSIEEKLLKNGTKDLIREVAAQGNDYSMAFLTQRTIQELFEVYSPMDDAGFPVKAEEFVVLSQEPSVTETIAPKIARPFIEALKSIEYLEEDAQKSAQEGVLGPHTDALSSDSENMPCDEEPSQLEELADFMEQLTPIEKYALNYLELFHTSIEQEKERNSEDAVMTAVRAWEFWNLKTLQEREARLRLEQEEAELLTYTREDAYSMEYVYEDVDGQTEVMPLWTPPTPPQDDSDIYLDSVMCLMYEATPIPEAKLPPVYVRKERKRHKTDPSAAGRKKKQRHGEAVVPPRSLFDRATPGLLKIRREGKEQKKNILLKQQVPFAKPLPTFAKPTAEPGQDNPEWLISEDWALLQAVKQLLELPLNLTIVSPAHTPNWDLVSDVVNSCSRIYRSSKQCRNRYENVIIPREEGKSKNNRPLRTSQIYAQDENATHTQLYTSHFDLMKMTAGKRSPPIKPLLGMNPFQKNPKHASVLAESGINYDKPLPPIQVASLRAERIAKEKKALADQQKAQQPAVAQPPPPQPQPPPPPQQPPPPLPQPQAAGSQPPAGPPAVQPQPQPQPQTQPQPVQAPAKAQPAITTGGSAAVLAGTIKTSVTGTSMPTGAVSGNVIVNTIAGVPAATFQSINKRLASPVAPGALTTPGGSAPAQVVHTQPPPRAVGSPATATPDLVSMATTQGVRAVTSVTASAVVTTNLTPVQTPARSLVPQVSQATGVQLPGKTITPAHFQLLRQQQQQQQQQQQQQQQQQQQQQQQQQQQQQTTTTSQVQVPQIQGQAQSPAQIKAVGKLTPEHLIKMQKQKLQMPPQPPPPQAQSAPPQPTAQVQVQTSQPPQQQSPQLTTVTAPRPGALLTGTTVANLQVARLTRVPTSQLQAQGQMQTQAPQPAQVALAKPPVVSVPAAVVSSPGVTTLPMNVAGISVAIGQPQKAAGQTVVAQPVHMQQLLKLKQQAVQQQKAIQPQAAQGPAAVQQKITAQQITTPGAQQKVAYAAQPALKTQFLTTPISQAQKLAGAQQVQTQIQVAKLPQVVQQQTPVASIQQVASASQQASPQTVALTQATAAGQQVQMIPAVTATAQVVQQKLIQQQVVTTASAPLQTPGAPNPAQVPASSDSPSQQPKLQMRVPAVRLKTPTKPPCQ
# UniProt Q2NKX8: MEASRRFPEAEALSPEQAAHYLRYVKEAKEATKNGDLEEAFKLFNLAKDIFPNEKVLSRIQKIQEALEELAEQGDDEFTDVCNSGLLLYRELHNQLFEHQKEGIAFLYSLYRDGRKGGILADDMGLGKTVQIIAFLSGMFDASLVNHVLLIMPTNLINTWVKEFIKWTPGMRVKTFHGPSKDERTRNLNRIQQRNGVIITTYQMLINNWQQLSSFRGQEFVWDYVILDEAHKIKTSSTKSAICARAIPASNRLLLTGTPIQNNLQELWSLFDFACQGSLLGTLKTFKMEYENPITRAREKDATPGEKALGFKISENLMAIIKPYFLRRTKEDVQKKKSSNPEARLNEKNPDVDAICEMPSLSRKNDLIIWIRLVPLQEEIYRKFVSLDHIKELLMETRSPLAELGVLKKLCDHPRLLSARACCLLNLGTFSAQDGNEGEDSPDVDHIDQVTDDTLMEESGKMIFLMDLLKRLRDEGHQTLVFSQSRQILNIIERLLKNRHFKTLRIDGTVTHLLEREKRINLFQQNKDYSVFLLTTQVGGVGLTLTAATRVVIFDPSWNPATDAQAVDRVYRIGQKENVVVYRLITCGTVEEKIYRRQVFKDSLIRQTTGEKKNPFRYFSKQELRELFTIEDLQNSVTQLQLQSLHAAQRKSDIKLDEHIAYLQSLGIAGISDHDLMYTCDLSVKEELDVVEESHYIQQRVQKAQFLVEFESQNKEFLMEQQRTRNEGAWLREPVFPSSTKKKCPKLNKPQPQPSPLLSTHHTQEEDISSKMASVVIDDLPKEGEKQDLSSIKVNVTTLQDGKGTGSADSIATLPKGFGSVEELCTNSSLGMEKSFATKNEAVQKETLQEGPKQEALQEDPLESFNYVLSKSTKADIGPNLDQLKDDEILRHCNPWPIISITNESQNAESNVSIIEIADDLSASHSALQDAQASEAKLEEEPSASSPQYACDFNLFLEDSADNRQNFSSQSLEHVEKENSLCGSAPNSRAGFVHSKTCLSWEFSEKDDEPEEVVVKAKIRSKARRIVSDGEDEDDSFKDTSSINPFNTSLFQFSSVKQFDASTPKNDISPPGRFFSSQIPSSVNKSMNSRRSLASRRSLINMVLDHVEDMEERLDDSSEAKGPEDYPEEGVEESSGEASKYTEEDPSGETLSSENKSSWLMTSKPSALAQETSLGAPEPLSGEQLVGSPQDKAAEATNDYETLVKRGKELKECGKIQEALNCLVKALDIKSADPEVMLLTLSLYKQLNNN
# UniProt Q969X5: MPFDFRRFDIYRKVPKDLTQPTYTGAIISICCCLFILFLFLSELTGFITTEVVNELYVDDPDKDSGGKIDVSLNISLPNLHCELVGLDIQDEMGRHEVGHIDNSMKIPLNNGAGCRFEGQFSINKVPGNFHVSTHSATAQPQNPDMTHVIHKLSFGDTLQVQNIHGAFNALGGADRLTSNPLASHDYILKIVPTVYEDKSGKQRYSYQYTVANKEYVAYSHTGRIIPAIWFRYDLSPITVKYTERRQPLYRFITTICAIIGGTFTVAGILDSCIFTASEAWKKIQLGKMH
# UniProt Q96B26, whole entry, looked up: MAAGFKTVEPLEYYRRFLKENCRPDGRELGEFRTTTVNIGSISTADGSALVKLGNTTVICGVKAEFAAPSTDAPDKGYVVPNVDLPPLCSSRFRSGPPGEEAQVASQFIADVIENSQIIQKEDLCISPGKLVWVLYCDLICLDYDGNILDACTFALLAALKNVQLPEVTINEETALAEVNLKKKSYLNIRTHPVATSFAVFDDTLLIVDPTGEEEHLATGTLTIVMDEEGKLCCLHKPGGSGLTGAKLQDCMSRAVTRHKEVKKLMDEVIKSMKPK
# What was measured:
# [1] = compound: ClCC(=O)N[C@@H]1CCCc2ccccc12; assay: log2 mean competition ratio of IA-DTB cysteine labelling (DMSO/compound) (log2 ratio); higher = stronger cysteine engagement by compound; conditions: treatment time: 4 h, cell line lysate: HEK293T
# Experimental: (§1)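 IA-DTB competitive cysteine chemoproteomics in HEK293T RIPA lysate. Lysates were treated with compound 29 or 30 at 50 or 200 µM for 4 h, then IA-DTB (500 µM, 1 h), trypsin-digested, NeutrAvidin-enriched and analysed by diaPASEF. Competition ratio = intensity DMSO / intensity compound (n=4 treated, n=64 DMSO); binding: mean log2 CR ≥ 1 and p ≤ 0.05 plus QC filters. Target is the cysteine site.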
# [2] = compound: ClCC(=O)N[C@H]1CCCc2ccccc12; assay: as above; conditions: treatment time: 4 h, cell line lysate: HEK293T
# Experimental: as §1
target,measurement,setting,value
ERAP1 C193 (UniProt Q9NZ08),log2 mean competition ratio,[1]; 50 µM,-0.239
same,log2 mean competition ratio,[1]; 200 µM,0.0698
same,log2 mean competition ratio,[2]; 50 µM,-0.184
same,log2 mean competition ratio,[2]; 200 µM,0.197
FAM98B C93 (UniProt Q52LJ0),log2 mean competition ratio,[1]; 50 µM,-0.0187
same,log2 mean competition ratio,[1]; 200 µM,0.163
same,log2 mean competition ratio,[2]; 50 µM,-0.353
same,log2 mean competition ratio,[2]; 200 µM,0.00744
ELP4 C361 (UniProt Q96EB1),log2 mean competition ratio,[1]; 50 µM,0.0434
same,log2 mean competition ratio,[1]; 200 µM,0.209
same,log2 mean competition ratio,[2]; 50 µM,-0.474
same,log2 mean competition ratio,[2]; 200 µM,0.048
EPC1 C546 (UniProt Q9H2F5),log2 mean competition ratio,[1]; 50 µM,0.0706
same,log2 mean competition ratio,[1]; 200 µM,0.25
same,log2 mean competition ratio,[2]; 50 µM,-0.667
same,log2 mean competition ratio,[2]; 200 µM,0.128
ENTPD6 C325 (UniProt O75354),log2 mean competition ratio,[1]; 50 µM,-0.216
same,log2 mean competition ratio,[1]; 200 µM,-0.166
same,log2 mean competition ratio,[2]; 50 µM,-0.172
same,log2 mean competition ratio,[2]; 200 µM,-0.319
FAM98C C36 (UniProt Q17RN3),log2 mean competition ratio,[1]; 50 µM,0.0872
same,log2 mean competition ratio,[1]; 200 µM,0.387
same,log2 mean competition ratio,[2]; 50 µM,0.0957
same,log2 mean competition ratio,[2]; 200 µM,0.401
FAM120B C380 (UniProt Q96EK7),log2 mean competition ratio,[1]; 50 µM,-0.282
same,log2 mean competition ratio,[1]; 200 µM,0.0744
same,log2 mean competition ratio,[2]; 50 µM,0.157
same,log2 mean competition ratio,[2]; 200 µM,0.0563
EXOC5 C254 (UniProt O00471),log2 mean competition ratio,[1]; 50 µM,-0.164
same,log2 mean competition ratio,[1]; 200 µM,-0.165
same,log2 mean competition ratio,[2]; 50 µM,-0.203
same,log2 mean competition ratio,[2]; 200 µM,-0.01
ERBIN C32 (UniProt Q96RT1),log2 mean competition ratio,[1]; 50 µM,-0.344
same,log2 mean competition ratio,[1]; 200 µM,-0.1
same,log2 mean competition ratio,[2]; 50 µM,0.071
same,log2 mean competition ratio,[2]; 200 µM,-0.308
ESPNL C629,log2 mean competition ratio,[1]; 50 µM,0.13
same,log2 mean competition ratio,[1]; 200 µM,0.27
same,log2 mean competition ratio,[2]; 50 µM,-0.159
same,log2 mean competition ratio,[2]; 200 µM,0.202
EXOC1 C747 (UniProt Q9NV70),log2 mean competition ratio,[1]; 50 µM,-0.0521
same,log2 mean competition ratio,[1]; 200 µM,-0.0418
same,log2 mean competition ratio,[2]; 50 µM,0.0481
same,log2 mean competition ratio,[2]; 200 µM,-0.16
EMSY C1211 (UniProt Q7Z589),log2 mean competition ratio,[1]; 50 µM,0.0895
same,log2 mean competition ratio,[1]; 200 µM,-0.0313
same,log2 mean competition ratio,[2]; 50 µM,0.0514
same,log2 mean competition ratio,[2]; 200 µM,-0.0284
ENTR1 C371 (UniProt Q96C92),log2 mean competition ratio,[1]; 50 µM,0.0813
same,log2 mean competition ratio,[1]; 200 µM,0.0806
same,log2 mean competition ratio,[2]; 50 µM,-0.0729
same,log2 mean competition ratio,[2]; 200 µM,-0.0472
ETFA C155 (UniProt P13804),log2 mean competition ratio,[1]; 50 µM,0.216
same,log2 mean competition ratio,[1]; 200 µM,0.00974
same,log2 mean competition ratio,[2]; 50 µM,-0.226
same,log2 mean competition ratio,[2]; 200 µM,0.0345
EZH1 C696,log2 mean competition ratio,[1]; 50 µM,0.389
same,log2 mean competition ratio,[1]; 200 µM,-0.141
same,log2 mean competition ratio,[2]; 50 µM,-0.0694
same,log2 mean competition ratio,[2]; 200 µM,0.0983
ENOSF1 C307 (UniProt Q7L5Y1),log2 mean competition ratio,[1]; 50 µM,0.469
same,log2 mean competition ratio,[1]; 200 µM,0.855
same,log2 mean competition ratio,[2]; 50 µM,0.678
same,log2 mean competition ratio,[2]; 200 µM,0.921
EPS15 C782 (UniProt P42566),log2 mean competition ratio,[1]; 50 µM,0.0886
same,log2 mean competition ratio,[1]; 200 µM,-0.694
same,log2 mean competition ratio,[2]; 50 µM,0.341
same,log2 mean competition ratio,[2]; 200 µM,-0.612
FAM126B C7 (UniProt Q8IXS8),log2 mean competition ratio,[1]; 50 µM,0.219
same,log2 mean competition ratio,[1]; 200 µM,0.519
same,log2 mean competition ratio,[2]; 50 µM,-0.00287
same,log2 mean competition ratio,[2]; 200 µM,0.136
EXOSC5 C102 (UniProt Q9NQT4),log2 mean competition ratio,[1]; 50 µM,0.0279
same,log2 mean competition ratio,[1]; 200 µM,-0.188
same,log2 mean competition ratio,[2]; 50 µM,-0.749
same,log2 mean competition ratio,[2]; 200 µM,-0.463
ETHE1 C170 (UniProt O95571),log2 mean competition ratio,[1]; 50 µM,-0.0904
same,log2 mean competition ratio,[1]; 200 µM,-0.0851
same,log2 mean competition ratio,[2]; 50 µM,0.253
same,log2 mean competition ratio,[2]; 200 µM,0.185
EP400 C3158 (UniProt Q96L91),log2 mean competition ratio,[1]; 50 µM,-0.104
same,log2 mean competition ratio,[1]; 200 µM,-0.0444
same,log2 mean competition ratio,[2]; 50 µM,0.0119
same,log2 mean competition ratio,[2]; 200 µM,-0.0432
ELP4 C412 (UniProt Q96EB1),log2 mean competition ratio,[1]; 50 µM,0.0643
same,log2 mean competition ratio,[1]; 200 µM,-0.146
same,log2 mean competition ratio,[2]; 50 µM,-0.445
same,log2 mean competition ratio,[2]; 200 µM,-0.0911
EXOSC1 C8 (UniProt Q9Y3B2),log2 mean competition ratio,[1]; 50 µM,0.0254
same,log2 mean competition ratio,[1]; 200 µM,0.0885
same,log2 mean competition ratio,[2]; 50 µM,0.108
same,log2 mean competition ratio,[2]; 200 µM,0.0738
EP400 C1761 (UniProt Q96L91),log2 mean competition ratio,[1]; 50 µM,0.149
same,log2 mean competition ratio,[1]; 200 µM,-0.0553
same,log2 mean competition ratio,[2]; 50 µM,-0.0343
same,log2 mean competition ratio,[2]; 200 µM,-0.0143
FAM120B C392 (UniProt Q96EK7),log2 mean competition ratio,[1]; 50 µM,-0.28
same,log2 mean competition ratio,[1]; 200 µM,0.158
same,log2 mean competition ratio,[2]; 50 µM,-0.132
same,log2 mean competition ratio,[2]; 200 µM,0.157
EPS15 C586 (UniProt P42566),log2 mean competition ratio,[1]; 50 µM,-0.0854
same,log2 mean competition ratio,[1]; 200 µM,0.157
same,log2 mean competition ratio,[2]; 50 µM,-0.188
same,log2 mean competition ratio,[2]; 200 µM,0.111
EMC8 C161 (UniProt O43402),log2 mean competition ratio,[1]; 50 µM,-0.576
same,log2 mean competition ratio,[1]; 200 µM,-0.121
same,log2 mean competition ratio,[2]; 50 µM,0.0503
same,log2 mean competition ratio,[2]; 200 µM,-0.162
ERCC6L C825 (UniProt Q2NKX8),log2 mean competition ratio,[1]; 50 µM,-0.507
same,log2 mean competition ratio,[1]; 200 µM,0.142
same,log2 mean competition ratio,[2]; 50 µM,0.217
same,log2 mean competition ratio,[2]; 200 µM,-0.0912
EVI5 C479 (UniProt O60447),log2 mean competition ratio,[1]; 50 µM,-0.0885
same,log2 mean competition ratio,[1]; 200 µM,-0.0453
same,log2 mean competition ratio,[2]; 50 µM,-0.392
same,log2 mean competition ratio,[2]; 200 µM,-0.184
EXOSC7 C238 (UniProt Q15024),log2 mean competition ratio,[1]; 50 µM,0.0219
same,log2 mean competition ratio,[1]; 200 µM,-0.244
same,log2 mean competition ratio,[2]; 50 µM,0.247
same,log2 mean competition ratio,[2]; 200 µM,-0.0944
FAM120C C745 (UniProt Q9NX05),log2 mean competition ratio,[1]; 50 µM,-0.00453
same,log2 mean competition ratio,[1]; 200 µM,0.242
same,log2 mean competition ratio,[2]; 50 µM,0.074
same,log2 mean competition ratio,[2]; 200 µM,0.106
ELOA C610 (UniProt Q14241),log2 mean competition ratio,[1]; 50 µM,0.0837
same,log2 mean competition ratio,[1]; 200 µM,-0.252
same,log2 mean competition ratio,[2]; 50 µM,0.0971
same,log2 mean competition ratio,[2]; 200 µM,-0.37
ERGIC1 C115 (UniProt Q969X5),log2 mean competition ratio,[1]; 50 µM,0.167
same,log2 mean competition ratio,[1]; 200 µM,0.672
same,log2 mean competition ratio,[2]; 50 µM,0.0561
same,log2 mean competition ratio,[2]; 200 µM,0.522
FAAP20 C70 (UniProt Q6NZ36),log2 mean competition ratio,[1]; 50 µM,-0.0997
same,log2 mean competition ratio,[1]; 200 µM,-0.108
same,log2 mean competition ratio,[2]; 50 µM,0.192
same,log2 mean competition ratio,[2]; 200 µM,0.354
EXOSC8 C60 (UniProt Q96B26),log2 mean competition ratio,[1]; 50 µM,0.17
same,log2 mean competition ratio,[1]; 200 µM,-0.0363
same,log2 mean competition ratio,[2]; 50 µM,-0.0837
same,log2 mean competition ratio,[2]; 200 µM,-0.222
EPS8 C767,log2 mean competition ratio,[1]; 50 µM,-0.0853
same,log2 mean competition ratio,[1]; 200 µM,-0.313
same,log2 mean competition ratio,[2]; 50 µM,0.0391
same,log2 mean competition ratio,[2]; 200 µM,-0.0214
ELL C595 (UniProt P55199),log2 mean competition ratio,[1]; 50 µM,0.169
same,log2 mean competition ratio,[1]; 200 µM,0.288
same,log2 mean competition ratio,[2]; 50 µM,0.194
same,log2 mean competition ratio,[2]; 200 µM,0.297
EXOSC8 C89 (UniProt Q96B26),log2 mean competition ratio,[1]; 50 µM,0.108
same,log2 mean competition ratio,[1]; 200 µM,-0.0195
same,log2 mean competition ratio,[2]; 50 µM,-0.238
same,log2 mean competition ratio,[2]; 200 µM,-0.0212
FAM120C C720 (UniProt Q9NX05),log2 mean competition ratio,[1]; 50 µM,0.218
same,log2 mean competition ratio,[1]; 200 µM,0.365
same,log2 mean competition ratio,[2]; 50 µM,0.578
same,log2 mean competition ratio,[2]; 200 µM,0.314
ENGASE C113 (UniProt Q8NFI3),log2 mean competition ratio,[1]; 50 µM,0.036
same,log2 mean competition ratio,[1]; 200 µM,0.0176
same,log2 mean competition ratio,[2]; 50 µM,0.177
same,log2 mean competition ratio,[2]; 200 µM,0.125
EXPH5 C1311,log2 mean competition ratio,[1]; 50 µM,-0.0116
same,log2 mean competition ratio,[1]; 200 µM,-0.00322
same,log2 mean competition ratio,[2]; 50 µM,0.0286
same,log2 mean competition ratio,[2]; 200 µM,0.000206
ERCC2 C259 (UniProt P18074),log2 mean competition ratio,[1]; 50 µM,0.286
same,log2 mean competition ratio,[1]; 200 µM,0.00963
same,log2 mean competition ratio,[2]; 50 µM,-0.0856
same,log2 mean competition ratio,[2]; 200 µM,0.0461
F2R C411 (UniProt P25116),log2 mean competition ratio,[1]; 50 µM,0.076
same,log2 mean competition ratio,[1]; 200 µM,-0.192
same,log2 mean competition ratio,[2]; 50 µM,-0.0154
same,log2 mean competition ratio,[2]; 200 µM,0.268
EXD2 C284 (UniProt Q9NVH0),log2 mean competition ratio,[1]; 50 µM,0.024
same,log2 mean competition ratio,[1]; 200 µM,-0.0206
same,log2 mean competition ratio,[2]; 50 µM,-0.222
same,log2 mean competition ratio,[2]; 200 µM,0.0281

# Reprinted from the entries so far (two entries):
target,measurement,setting,value
EP400 C3158 (UniProt Q96L91),log2 mean competition ratio,[1]; 200 µM,-0.0444
same,log2 mean competition ratio,[2]; 50 µM,0.0119

# Rewritten with bars between the fields: part of the list above
target | measurement | setting | value
EMSY C1211 (UniProt Q7Z589) | log2 mean competition ratio | [2]; 50 µM | 0.0514
ENOSF1 C307 (UniProt Q7L5Y1) | log2 mean competition ratio | [1]; 200 µM | 0.855
FAM126B C7 (UniProt Q8IXS8) | log2 mean competition ratio | [1]; 200 µM | 0.519
EMC8 C161 (UniProt O43402) | log2 mean competition ratio | [2]; 200 µM | -0.162
EXOSC7 C238 (UniProt Q15024) | log2 mean competition ratio | [1]; 200 µM | -0.244
ERGIC1 C115 (UniProt Q969X5) | log2 mean competition ratio | [1]; 200 µM | 0.672
EPS8 C767 | log2 mean competition ratio | [2]; 50 µM | 0.0391

# Fetched one by one from the list above:
target,measurement,setting,value
ERCC6L C825 (UniProt Q2NKX8),log2 mean competition ratio,[1]; 50 µM,-0.507
EXOC5 C254 (UniProt O00471),log2 mean competition ratio,[1]; 50 µM,-0.164
